At least one compound was matched to its structure with a doubt left.
Test system: human recombinant carboxylesterases
Test: In vitro metabolic stability (rate of metabolite formation) in human recombinant carboxylesterases
Type: in vitro ADME
Conditions: human recombinant carboxylesterases 0.1 mg/mL, 1 μM test compound, pH 6.0, 37° C.
Method: Dutch Belted rabbits were euthanized with an overdose of sodium pentobarbital. The corneas were collected and homogenized in ice-cold potassium chloride solution (pH=7.4). The homogenate was centrifuged at 755×g for 30 min at 4° C. and aliquots of the supernatant were stored at or below −70° C. until metabolism experiments were conducted. Prior to storing the homogenates an aliquot was removed for determination of protein concentrations by calculating the 260 nm absorbance using a spectrophotometer. Human recombinant carboxylesterases were purchased from a commercial vendor (BD Gentest™, Bedford, Mass.)
All metabolic stability experiments were performed in triplicate in 96-well plate format. The final incubation mixture contained 1 μM test compound, 0.3 mg/mL corneal protein homogenate or 0.1 mg/mL human recombinant carboxylesterase mixture in a final volume of 0.5 mL 0.1 M potassium phosphate buffer (pH=6.0). The final percentage of solvent in the incubation was less than 1.0% to prevent inhibition of enzymatic activity. […]
Hydrolysis of the metabolites was confirmed to be due to esterase activity and not chemical lability. The samples were analyzed by liquid chromatography with mass spectrometry (LC-MS/MS) detection to determine the metabolite concentrations resulting from the metabolism of ester linked hybrids. […]

COc1c(N2CCN(C(=O)OCOC(=O)CCC(=O)OCC(=O)[C@@]3(O)CCC4C5CCC6=CC(=O)C=C[C@]6(C)C5[C@@H](O)C[C@@]43C)C(C)C2)c(F)cc2c(=O)c(C(=O)O)cn(C3CC3)c12 (relative stereo) [Compound 25, rel-1-cyclopropyl-7-[4-({[(4-{2-[(10R,11S,13S,17R)-11,17-dihydroxy-10,13-dimethyl-3-oxo-6,7,8,9,10,11,12,13,14,15,16,17-dodecahydro-3H-cyclopenta[a]phenanthren-17-yl]-2-oxoethoxy}-4-oxobutanoyl)oxy]methoxy}carbonyl)-3-methylpiperazin-1-yl]-6-fluoro-8-methoxy-4-oxo-1,4-dihydroquinoline-3-carboxylic acid]
Rate of formation Metabolite 2 (Gatifloxacin) (metabolite Gatifloxacin): 1400 ± 150 nM/min/mg | Rate of formation Metabolite 1 (Prednisolone) (metabolite Prednisolone): 1220 ± 130 nM/min/mg

From US20140256660A1, “ANTIBIOTIC CONJUGATES LINKED WITH STEROID DRUGS” (Allergan, Inc., priority 2013, published 2014)
